The inconclusive results got no clear call from the source; some entries with a clear call stand among them for comparison. For some of these results: Where the call is inconclusive, the potency comes from a doubtful curve fit. Activity calls are given as the source filed them. Calls come from the whole dose curve; as a rule, active = well fitted cell-killing curve with a large enough effect; inconclusive = small, poorly fitted or top-dose-only effect, or effect the other way; inactive = no such curve, though single readings can be large or run the other way.
Assays:
[1] = Quantitative High-Throughput drug screen in 47 multiple myeloma cell lines against the NCATS MIPE library collection: L363_DSMZ cell viability assay (AID 1918984); conditions: L363 myeloma viability, CellTiter-Glo ATP luminescence, 48 h; viability (% of control): at 45.8 µM (top of the series); note: nearly all actives have a fitted effect of over 40% in size
Procedure, shortened: (§1)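 ATP-based luminescence (CellTiter-Glo, 5 min RT incubation) quantified surviving cells following two days' treatment with MIPE 4.0 agents at 37 °C, 5% CO2.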

[2] = Quantitative High-Throughput drug screen in 47 multiple myeloma cell lines against the NCATS MIPE library collection: KMS34_JCRB cell viability assay (AID 1918985); conditions: KMS34 myeloma viability, CellTiter-Glo ATP luminescence, 48 h; viability, percent of control: at 45.8 µM (top of the series); note: nearly all actives have a fitted effect of over 40% in size;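 for viability, percent of control: 100% = DMSO-only wells and 0% = media-only wells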
Procedure, shortened: as §1

[3] = Quantitative High-Throughput drug screen in 47 multiple myeloma cell lines against the NCATS MIPE library collection: OCIMY7_PLB cell viability assay (AID 1918987); conditions: OCI-MY7 myeloma viability, CellTiter-Glo ATP, 48 h; viability (% of DMSO): at 45.8 µM (top of the series); note: nearly all actives have a fitted effect of over 65% in size
Procedure, shortened: as §1

[4] = Quantitative High-Throughput drug screen in 47 multiple myeloma cell lines against the NCATS MIPE library collection: OCIMY5_PLB cell viability assay (AID 1918988); conditions: OCI-MY5 myeloma viability, ATP luminescence, 48 h; viability, % of control: at 45.8 µM (top of the series); note: nearly all actives have a fitted effect of over 65% in size
Procedure, shortened: as §1

[5] = Quantitative High-Throughput drug screen in 47 multiple myeloma cell lines against the NCATS MIPE library collection: OPM1_PLB cell viability assay (AID 1918989); note: nearly all actives have a fitted effect of over 40% in size;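 for viability (% of control): 100% = DMSO-only wells and 0% = media-only wells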
Procedure, shortened: as §1

[6] = Quantitative High-Throughput drug screen in 47 multiple myeloma cell lines against the NCATS MIPE library collection: SKMM1_PLB cell viability assay (AID 1919863); conditions: SKMM1 myeloma viability, CellTiter-Glo ATP, 48 h; viability: hits give low values; note: nearly all actives have a fitted effect of over 35% in size
Procedure, shortened: as §1

[7] = Quantitative High-Throughput drug screen in 47 multiple myeloma cell lines against the NCATS MIPE library collection: U266_ATCC cell viability assay (AID 1919864); note: nearly all actives have a fitted effect of over 35% in size
Procedure, shortened: as §1

[8] = Quantitative High-Throughput drug screen in 47 multiple myeloma cell lines against the NCATS MIPE library collection: XG1_PLB cell viability assay (AID 1919866); note: nearly all actives have a fitted effect of over 35% in size
Procedure, shortened: as §1

[9] = Quantitative High-Throughput drug screen in 47 multiple myeloma cell lines against the NCATS MIPE library collection: XG6_PLB cell viability assay (AID 1919865); conditions: XG6 myeloma viability, CellTiter-Glo ATP luminescence, 48 h; viability (% of control): at 45.8 µM (top of the series); note: nearly all actives have a fitted effect of over 40% in size;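 for viability (% of control): 100% = DMSO-only wells and 0% = media-only wells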
Procedure, shortened: as §1

[10] = Quantitative High-Throughput drug screen in 47 multiple myeloma cell lines against the NCATS MIPE library collection: VP6_DJ cell viability assay (AID 1919867); conditions: ATP luminescence, 48 h; viability (% of DMSO): at 45.8 µM (top of the series); note: nearly all actives have a fitted effect of over 40% in size;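 for viability (% of DMSO): 100% = DMSO-only wells and 0% = wells with media alone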
Procedure, shortened: as §1
Potency is the fitted concentration of half-maximal effect.

CCCC(CCC)C(=O)O
inactive: Potency [2] | viability [6] 126%
active: Potency [8] 20.9 µM
inconclusive: viability (% of control) [1] 130% | Potency [3] 7.43 µM [cytotoxic, partial curve, poor fit] | Potency [4] 37.2 µM [rising, single point] | Potency [5] 0.0012 µM [cytotoxic, full curve, poor fit] | Potency [7] 0.0053 µM [rising, full curve, poor fit]

CCOC(=O)O[C@]1(C(=O)OCCl)CC[C@@H]2[C@H]3CCC4=CC(=O)C=C[C@]4(C)[C@@H]3[C@@H](O)C[C@@]21C
inactive: Potency [1] | viability [6] 124% | Potency [9]
inconclusive: Potency [2] 2.96 µM [cytotoxic, partial curve, poor fit] | Potency [3] 20.9 µM [cytotoxic, partial curve, poor fit] | Potency [4] 1.32 µM [cytotoxic, full curve, poor fit] | Potency [5] 18.7 µM [cytotoxic, partial curve, poor fit] | Potency [7] 18.7 µM [cytotoxic, single point]

c1ccc(-c2nn3c(c2-c2ccnc4cc(OCCN5CCOCC5)ccc24)CCC3)nc1
inactive: Potency [5] | Potency [9]
inconclusive: Potency [1] 0.0021 µM [cytotoxic, full curve, poor fit] | Potency [2] 37.2 µM [cytotoxic, single point] | Potency [3] 0.0209 µM [cytotoxic, full curve, poor fit] | Potency [4] 23.5 µM [cytotoxic, partial curve, poor fit] | Potency [6] 4.69 µM [cytotoxic, full curve, poor fit] | Potency [7] 37.2 µM [cytotoxic, single point] | Potency [8] 5.9 µM [cytotoxic, full curve, poor fit]

CNC(=O)c1cc(Oc2ccc(NC(=O)Nc3ccc(Cl)c(C(F)(F)F)c3)c(F)c2)ccn1
active: Potency [1] 6.62 µM
inconclusive: Potency [2] 23.5 µM [cytotoxic, partial curve, poor fit] | Potency [3] 3.32 µM [cytotoxic, partial curve, poor fit] | Potency [4] 33.2 µM [cytotoxic, single point]

CNCCCC12CCC(c3ccccc31)c1ccccc12
inconclusive: Potency [2] 23.5 µM [cytotoxic, partial curve, poor fit] | Potency [3] 37.2 µM [cytotoxic, single point]
active: Potency [1] 16.6 µM

COC1=C(OC)C(=O)C(CCCCCCCCCCO)=C(C)C1=O
inconclusive: Potency [2] 14.8 µM [cytotoxic, partial curve] | Potency [5] 29.6 µM [cytotoxic, single point] | Potency [6] 9.35 µM [cytotoxic, partial curve, poor fit] | Potency [7] 23.5 µM [cytotoxic, single point]
active: Potency [1] 14.8 µM | Potency [3] 16.6 µM | Potency [4] 20.9 µM

Cc1cccc(-c2[nH]c(C(C)(C)C)nc2-c2ccc3nccnc3c2)n1
active: Potency [1] 1.87 µM | Potency [9] 3.32 µM
inconclusive: Potency [2] 18.7 µM [cytotoxic, partial curve, poor fit] | Potency [3] 7.43 µM [cytotoxic, full curve, poor fit] | Potency [4] 29.6 µM [cytotoxic, single point] | Potency [5] 5.9 µM [cytotoxic, full curve, poor fit] | Potency [6] 20.9 µM [cytotoxic, partial curve, poor fit] | Potency [7] 20.9 µM [cytotoxic, partial curve, poor fit] | Potency [8] 4.69 µM [cytotoxic, full curve]

Retrieved by compound from the entries so far, 2 records:
CNCCCC12CCC(c3ccccc31)c1ccccc12
inconclusive: Potency [2] 23.5 µM [cytotoxic, partial curve, poor fit] | Potency [3] 37.2 µM [cytotoxic, single point]
active: Potency [1] 16.6 µM

c1ccc(-c2nn3c(c2-c2ccnc4cc(OCCN5CCOCC5)ccc24)CCC3)nc1
inactive: Potency [5] | Potency [9]
inconclusive: Potency [1] 0.0021 µM [cytotoxic, full curve, poor fit] | Potency [2] 37.2 µM [cytotoxic, single point] | Potency [3] 0.0209 µM [cytotoxic, full curve, poor fit] | Potency [4] 23.5 µM [cytotoxic, partial curve, poor fit] | Potency [6] 4.69 µM [cytotoxic, full curve, poor fit] | Potency [7] 37.2 µM [cytotoxic, single point] | Potency [8] 5.9 µM [cytotoxic, full curve, poor fit]

Next part:

COC(=O)N[C@H](C(=O)N1CCC[C@@H]1c1ncc(-c2ccc(-c3ccc(-c4cnc([C@@H]5CCCN5C(=O)[C@@H](NC(=O)OC)C(C)C)[nH]4)cc3)cc2)[nH]1)C(C)C
active: Potency [1] 29.6 µM | Potency [3] 18.7 µM
inconclusive: Potency [2] 33.2 µM [cytotoxic, single point] | Potency [4] 33.2 µM [cytotoxic, single point] | Potency [5] 33.2 µM [cytotoxic, single point] | Potency [6] 37.2 µM [cytotoxic, single point] | Potency [7] 33.2 µM [cytotoxic, single point] | Potency [8] 26.4 µM [cytotoxic, single point] | Potency [10] 29.6 µM [cytotoxic, single point]

N[C@@H](CC(=O)N1CCn2c(nnc2C(F)(F)F)C1)Cc1cc(F)c(F)cc1F
inconclusive: viability (% of control) [1] 87.8% [cytotoxic] | Potency [2] 0.662 µM [cytotoxic, full curve, poor fit] | Potency [3] 16.6 µM [cytotoxic, partial curve, poor fit] | Potency [4] 9.35 µM [cytotoxic, partial curve, poor fit] | Potency [5] 7.43 µM [cytotoxic, partial curve, poor fit] | Potency [6] 11.8 µM [cytotoxic, partial curve, poor fit] | Potency [7] 0.001 µM [cytotoxic]
inactive: Potency [9] | Potency [8] | Potency [10]
